Values quoted from earlier work in patent publication US20100160623A1, “CYCLODEXTRIN INCLUSION COMPLEXES AND METHODS OF PREPARING SAME” (CARGILL, INCORPORATED, priority 2006, published 2010).
Some results were stated once for a whole list of compounds, not compound by compound.

Conditions: approximate class bounds given as e.g.; cited from earlier work

SMILES: CC=O [acetaldehyde]
- log(P) value (class of guest): less than 0 but greater than about −2
